According to paper PMC3861177:
No constants are given. Whether binding was seen depends on the method and setting. Some results given as binding are weak or reduced against the parent protein; the word gives no strength.

Sequences of proteins named here, by UniProt entry; tags and fusion partners are left off. A change or cut given only in a name is not applied to a line headed by its entry.
UniProt O60603: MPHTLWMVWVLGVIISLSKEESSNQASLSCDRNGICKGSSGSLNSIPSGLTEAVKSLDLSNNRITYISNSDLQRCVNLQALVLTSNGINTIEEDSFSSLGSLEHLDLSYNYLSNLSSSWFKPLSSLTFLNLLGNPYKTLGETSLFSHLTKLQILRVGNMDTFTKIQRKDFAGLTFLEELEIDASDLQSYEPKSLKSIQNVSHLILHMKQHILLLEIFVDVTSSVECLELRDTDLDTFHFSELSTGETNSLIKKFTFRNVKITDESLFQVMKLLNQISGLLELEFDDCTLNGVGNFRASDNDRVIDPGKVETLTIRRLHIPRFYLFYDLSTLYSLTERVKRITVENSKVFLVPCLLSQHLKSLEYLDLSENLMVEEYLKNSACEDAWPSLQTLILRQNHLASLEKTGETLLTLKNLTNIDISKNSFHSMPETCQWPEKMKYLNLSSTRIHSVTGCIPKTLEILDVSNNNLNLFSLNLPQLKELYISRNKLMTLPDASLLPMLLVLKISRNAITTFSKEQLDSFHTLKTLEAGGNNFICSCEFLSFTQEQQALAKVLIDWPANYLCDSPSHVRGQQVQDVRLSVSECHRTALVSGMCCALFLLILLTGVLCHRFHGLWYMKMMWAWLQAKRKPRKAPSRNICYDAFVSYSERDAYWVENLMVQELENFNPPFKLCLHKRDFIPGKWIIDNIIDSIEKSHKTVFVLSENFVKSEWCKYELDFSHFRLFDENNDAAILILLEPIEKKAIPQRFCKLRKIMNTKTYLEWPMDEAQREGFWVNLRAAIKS

T1: Pam3-Cys-Ser-Lys4 (Pam3CSK4) conjugated-biotin
T1 sequence (peptide, Pam3 on the Cys (as printed, Pam3-Cys-Ser-Lys4); biotin, position not stated): CSKKKK


Tests used:
[1] = biological target: T1, Pam3-Cys-Ser-Lys4 (Pam3CSK4) conjugated-biotin; experiment: flow cytometry on cells; Pam3CSK4-biotin held on Streptavidin-Agarose beads; HEK-Blue2 cells treated with the beads for 1h, beads isolated and washed 3 times with PBS, bead-associated cells quantified with anti-TLR2 antibody; only the target purified
[2] = biological target: human TLR2 on HEK-Blue2 cells (human) (UniProt O60603); experiment: flow cytometry on cells; cells treated with Pam3CSK4-biotin 100ng/ml on ice; ligand on the cell surface stained with mouse anti-biotin/goat anti-mouse-phycoerythrin; only the binder purified
[3] = biological target: TLR2 on HEK-293 cells expressing only TLR2 (UniProt O60603); experiment: as above

binding [1] | binding [2] | binding [3] | Molecule
binds | – | – | human TLR2 on HEK-Blue2 cells (from UniProt O60603 21-784) (receptor)
– | binds | binds | CSKKKK (Pam3 on the Cys (as printed: Pam3-Cys-Ser-Lys4); biotin, position not stated) [Pam3-Cys-Ser-Lys4 (Pam3CSK4) conjugated-biotin]
